Screen size: about 340,000 compounds; about 170 (0.05%) were called active. This list was built around the results that the source calls inconclusive (neither active nor inactive); the mix of calls is not that of the screen. The call rests on the fitted dose curve; in most records, active means well fitted inhibition curve with a large enough effect in the signal ratio, with a control signal flat (not every such curve was filed as active); inconclusive means small, poorly fitted or top-dose-only effect, or effect the other way, or a change in a side signal; inactive means flat fitted curve, though single readings scatter; the % refers to the signal ratio. Potencies of inconclusive entries are doubtful fits and often do not repeat.
Assay: qHTS Assay to Find Inhibitors of Chronic Active B-Cell Receptor Signaling;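 on activity change, negative = inhibition: plate controls were basal doxycycline-induced cells for no effect and cells given 10 µM MG132 for full effect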
Details: ABC-DLBCL IkBa-CBG/CBR reporter, luminescence ratio (green luciferase fused to IkBa over red control in TMD8 lymphoma cells), 4 h; activity change, negative = inhibition: at 46.1 µM (top of the series)
Procedure, shortened: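 Concentration-response series (up to 46 uM) were applied to TMD8 dual-reporter cells for 4 h at 37C with doxycycline. Green/red ratio, after filter-overlap correction, defined %Activity; red signal alone was normalised to basal cells and zero luminescence.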
With `CC(C)[C@H](NS(=O)(=O)c1cccc(Cl)c1)C(=O)OCC(=O)NC(=O)CN1CCCC1=O` the activity change, negative = inhibition was “inactive”. With `CCOc1ccc(C2c3c(oc4ccccc4c3=O)C(=O)N2CCCN2CCOCC2)cc1` (stereo not drawn) the activity change, negative = inhibition was inconclusive: 12.7%. In the case of `COC(=O)C1C(=O)C2=C(CC1C)NC(C)=C(C(=O)OCCOc1ccccc1)C2c1ccc(C)o1` (stereo not drawn), the Potency is reported as inconclusive: 20.6 µM [falling, single point]. In the case of `Cc1ccccc1-n1c(SCC(=O)Nc2ccccc2Cl)nc2n[nH]c(C)c2c1=N`, the activity change, negative = inhibition is reported as inconclusive: 5.08%. With `CC1Cc2ccccc2N1C(=O)c1nn(C)cc1Br` (stereo not drawn) the activity change, negative = inhibition was “inactive”. With `COc1ccc(CC(=O)Nc2cc(S(=O)(=O)N3CCCC3)ccc2Cl)c(OC)c1` the activity change, negative = inhibition was “inactive”. For `CCN(C(=O)c1ccc2c(SCC(=O)O)c3c(nc2c1)CCC3)c1cc(Cl)ccc1OC`, the activity change, negative = inhibition was inconclusive: -1.06%. With `CCn1c(C)csc1=NC(=O)c1ccccc1O` the Potency was inconclusive: 0.92 µM [rising, full curve, poor fit]. With `O=C(Cn1c2[n+](c3ccc(C(F)(F)F)cc31)CCCCC2)Nc1ccc(Br)cc1` the activity change, negative = inhibition was “inactive”. For `CN1CCN(C(=O)CN(CCc2ccccc2)S(C)(=O)=O)CC1`, the activity change, negative = inhibition was inconclusive: 3.41%. In the case of `CC(=O)c1cc2c(cc1N(C(=O)Cn1nnc3ccccc31)C(C(=O)NCCC(C)C)c1cccnc1)OCO2` (stereo not drawn), the activity change, negative = inhibition is reported as “inactive”. In the case of `CCCCOc1cccc(OCC(=O)Nc2nc3ccccc3[nH]2)c1`, the activity change, negative = inhibition is reported as “inactive”. In the case of `O=C(CCCCCNC(=S)Nc1ccccc1)C[N+](=O)[O-]`, the Potency is reported as inconclusive: 31.6 µM [falling, partial curve]. With `COc1ccc2c(c1)OC1(C)CC2C(C(=O)c2ccccc2OC)C(=O)N1` (stereo not drawn) the activity change, negative = inhibition was inconclusive: 0.345%. For `C=CCn1c(CSCc2ccc(F)cc2)n[nH]c1=S`, the Potency was inconclusive: 28.2 µM [falling, single point]. With `O=C(NCCCN1CCCC1=O)c1cn(-c2ccccc2)nc1-c1ccccc1` the activity change, negative = inhibition was inconclusive: 0.262%. For `Cn1/c(=N/N=C/c2ccc([N+](=O)[O-])cc2)sc2ccccc21`, the Potency was inconclusive: 1.12 µM [rising, full curve, poor fit]. For `CCc1ccc(-c2cc(C)no2)cc1S(=O)(=O)NCCCN1CCN(c2ccccc2)CC1`, the activity change, negative = inhibition was inconclusive: 0.583%. For `Cc1noc(C)c1S(=O)(=O)N1CCC(C(=O)N2CCC(N3CCCCC3)CC2)CC1`, the activity change, negative = inhibition was inconclusive: 3.03%. For `CC1CCN(S(=O)(=O)N2CCC(C(=O)NCc3ccccc3Cl)CC2)CC1`, the activity change, negative = inhibition was “inactive”. In the case of `COC(=O)c1ccc(Nc2ncnc3c2cnn3C)cc1`, the activity change, negative = inhibition is reported as inconclusive: 10.7%. For `Cc1ccc(C)c(NC(=S)/C(=C(\[O-])c2ccc(OC(F)F)cc2)[n+]2ccccc2)c1`, the activity change, negative = inhibition was “inactive”. In the case of `Cc1cc2nc(SCC(=O)N(C)C)c3c(c2cc1C)CCCC3`, the activity change, negative = inhibition is reported as inconclusive: 3.91%. For `CC(/C=C/c1ccccc1)=N/NC(=O)CNC(=O)c1ccc2c(c1)OCO2`, the activity change, negative = inhibition was “inactive”. In the case of `COc1ccc(C(=O)N/N=C(\C)CC(=O)Nc2ccc3c(c2)OCO3)cc1`, the Potency is reported as inconclusive: 12.6 µM [falling, partial curve]. With `N#Cc1c(C(F)(F)F)cc(=O)n2c1[nH]c1ccccc12` the Potency was inconclusive: 35.5 µM [rising, single point]. For `O=C(CSc1nc(=O)n(Cc2ccco2)c2c1CCC2)NCc1ccccc1`, the activity change, negative = inhibition was “inactive”. In the case of `CCN(CCNC(=O)C1=C(C)C(=O)OC12CCC(C)CC2)c1ccccc1` (stereo not drawn), the activity change, negative = inhibition is reported as inconclusive: 3.06%. For `Cc1cc(=O)oc2cc(NC(=O)CCOc3ccccc3)ccc12`, the Potency was inconclusive: 8.91 µM [rising, partial curve, poor fit]. With `Cc1ccc(C(=O)NNC(=O)CSc2nnc(-c3ccncc3)n2C)cc1` the activity change, negative = inhibition was “inactive”. In the case of `Cc1nnc(SCC(=O)n2c3c(c4ccccc42)CCCC3)s1`, the Potency is reported as inconclusive: 3.98 µM [falling, partial curve, poor fit]. For `CC(C)c1ccc(/C=N/NC(=O)CCNC(=O)c2ccccc2)cc1`, the Potency was inconclusive: 14.1 µM [falling, single point]. In the case of `N=c1n(CCCOc2ccc(Br)cc2)c2ccccc2n1CC(N)=O`, the Potency is reported as inconclusive: 12.6 µM [falling, single point]. With `Cc1ccc2c(COC(=O)CNC(=O)c3ccco3)cc(=O)oc2c1C` the activity change, negative = inhibition was inconclusive: 1.43%. For `O=C1C=C(c2ccc(Cl)c(C(F)(F)F)c2)C[C@@H](c2ccc3c(c2)OCO3)C1`, the activity change, negative = inhibition was “inactive”. With `COc1ccccc1OCc1nnc(SCC(=O)N2CCCC2)o1` the Potency was inconclusive: 11.2 µM [falling, partial curve, poor fit]. In the case of `O=C(NCc1ccccc1)C(=O)Nc1c2c(nn1-c1ccc(F)cc1)CSC2`, the activity change, negative = inhibition is reported as “inactive”. For `Cc1ccc(S(=O)(=O)NCCC(=O)OCC(=O)Nc2cccc(S(=O)(=O)NC3=NCCCCC3)c2)cc1`, the activity change, negative = inhibition was inconclusive: 3.53%. With `COc1ccc(COc2ccsc2C(=O)Nc2ccc(Cl)c(Cl)c2)cc1` the activity change, negative = inhibition was inconclusive: 12%. For `Cc1ccnc(SCCn2c(N3CCCCC3)nc3c2c(=O)n(C)c(=O)n3C)n1`, the activity change, negative = inhibition was inconclusive: -1.39%. For `Cc1noc(C)c1-c1ccc2ncnc(NCC3CCCCN3C)c2c1` (stereo not drawn), the activity change, negative = inhibition was inconclusive: -8.8%. In the case of `O/N=C(\c1ccc(Cl)cc1Cl)c1ncc(C(F)(F)F)cc1Cl`, the Potency is reported as inconclusive: 1.84 µM [rising, partial curve, poor fit]. In the case of `COc1cccc(-c2nc3ccccc3s2)c1`, the Potency is reported as inconclusive: 0.58 µM [rising, partial curve]. For `CSc1nnc(CNS(=O)(=O)c2ccc(Cl)cc2)n1C`, the activity change, negative = inhibition was “inactive”. In the case of `CC1(c2ccc(Cl)cc2)NC(=O)N(CC(=O)Nc2cccnc2Cl)C1=O` (stereo not drawn), the activity change, negative = inhibition is reported as “inactive”. In the case of `Cc1nc(-c2ccccc2)sc1C1(C)CC(c2c(Cl)cccc2Cl)=NO1` (stereo not drawn), the Potency is reported as inconclusive: 6.31 µM [rising, partial curve, poor fit]. With `CC(C)(C)c1ccc(OCCOc2ccc(C(C)(C)C)cc2NC=O)c(NC=O)c1` the Potency was inconclusive: 25.1 µM [falling, partial curve, poor fit]. In the case of `COc1ccc(N=C2S/C(=C\c3ccc(Cl)c([N+](=O)[O-])c3)C(=O)N2CCN(C)C)cc1`, the activity change, negative = inhibition is reported as inconclusive: -14.2%. With `CC(=O)Nc1ccc(SCC(=O)OCC(=O)NC(=O)NCc2ccco2)cc1` the activity change, negative = inhibition was inconclusive: 3%. For `CSc1nc(NCCOCCO)c2sc3nc(-c4ccco4)c4c(c3c2n1)CCC4`, the activity change, negative = inhibition was “inactive”. With `Cc1ccc(C(=O)O/N=C(\N)c2ccccn2)cc1` the activity change, negative = inhibition was inconclusive: 288%. With `COc1ccc(C(=O)Nn2c(SCC(=O)N3CCC(C)CC3)nc3ccccc3c2=O)cc1` the Potency was inconclusive: 35.5 µM [rising, single point]. With `CCn1c(COc2ccc3c(c2)OCO3)nnc1SCC(=O)c1ccc(Cl)cc1` the activity change, negative = inhibition was inconclusive: 15.8%. For `CCCN(CC(=O)Nc1ccccc1C)CC(=O)Nc1ccc(Br)cc1F`, the activity change, negative = inhibition was inconclusive: -9.58%. For `OC(CNc1nc(C(F)(F)F)nc2ccccc12)c1ccccc1` (stereo not drawn), the activity change, negative = inhibition was inconclusive: -5.07%. In the case of `CC(C)c1ccc(S(=O)(=O)/N=C2\C=C(NS(=O)(=O)c3ccccc3)C(=O)c3ccccc32)cc1`, the activity change, negative = inhibition is reported as inconclusive: -24.1%. For `CCCCc1cc(=O)oc2cc(C)cc(O)c12`, the Potency was inconclusive: 22.4 µM [falling, single point]. With `Cn1c(=O)c(C(=O)Nc2cnccn2)c(O)c2ccccc21` the Potency was inconclusive: 31.6 µM [falling, partial curve, poor fit]. With `COc1cccc(Nc2nc3ccccc3n3nnnc23)c1` the activity change, negative = inhibition was inconclusive: 0.0297%. For `CCCN(CC(=O)Nc1ccccc1OC)C(=O)c1ccc(=O)[nH]c1`, the activity change, negative = inhibition was inconclusive: 0.142%. For `O=C(CC(NCc1ccccn1)C(=O)O)Nc1ccccc1Cl` (stereo not drawn), the activity change, negative = inhibition was “inactive”. In the case of `S=C(NCCN1CCOCC1)NC1CCCCC1`, the activity change, negative = inhibition is reported as inconclusive: 6.94%. With `CN1CCN(CCC=C2c3ccccc3Sc3ccc(S(=O)(=O)N(C)C)cc32)CC1` the Potency was inconclusive: 29.1 µM [falling, single point]. For `Cc1cc(-c2nnc(-c3cccc(C(F)(F)F)c3)o2)no1`, the activity change, negative = inhibition was inconclusive: 9.15%. In the case of `CCOC(=O)c1c(NC(=O)c2ccc(C)cc2)sc2c1CC(C)(C)OC2`, the activity change, negative = inhibition is reported as “inactive”. In the case of `CCCNC(=O)Nc1cc(OC)c(OC)cc1Cc1nccc2cc(OC)c(OC)cc12`, the Potency is reported as inconclusive: 20 µM [falling, single point]. For `CCn1ncc(Br)c1C(=O)Nc1ccn(C23CC4CC(CC(C4)C2)C3)n1`, the activity change, negative = inhibition was inconclusive: -1.44%. In the case of `COCCn1c(-c2ccc(SC)cc2)nc2c1c(=O)[nH]c(=O)n2CC(C)C`, the activity change, negative = inhibition is reported as inconclusive: 7.28%. With `O=C(O)c1c(-n2cccc2)sc2c1CCCC2` the activity change, negative = inhibition was inconclusive: 0.695%. With `CC12CCC(=O)N1C(C(=O)Nc1nc(-c3ccccc3)cs1)CS2` (stereo not drawn) the activity change, negative = inhibition was inconclusive: 23.1%. In the case of `CCOc1ccc(NC(=O)c2ccc(NS(=O)(=O)c3cccs3)cc2)cc1`, the Potency is reported as inconclusive: 17.8 µM [falling, partial curve]. With `Cn1ncc(C(=O)Nc2ccc(OC(F)(F)F)cc2)c1-n1cccc1` the activity change, negative = inhibition was inconclusive: 8.29%. In the case of `O=C(c1cc2c(cc1Br)OCCCO2)N1CCCCC1`, the activity change, negative = inhibition is reported as “inactive”. For `Cc1ccc(-c2csc(/C=C3\SC(C)C(=O)N3CC(=O)Nc3ccccc3F)n2)cc1` (stereo not drawn), the activity change, negative = inhibition was “inactive”. For `COc1cccc(NC(=S)/C(=C(\[O-])c2ccc(OC(F)F)cc2)[n+]2ccccc2)c1`, the Potency was inconclusive: 35.5 µM [falling, single point]. For `COCCn1c(N)c(C#N)c2nc3ccccc3nc21`, the Potency was inconclusive: 16.4 µM [rising, single point]. In the case of `CCCCN1C(=O)c2ccc(C(=O)NCc3ccco3)cc2C1=O`, the activity change, negative = inhibition is reported as inconclusive: 4.97%. With `Cc1nc2ccc(NC(=O)c3ccc(Cl)c([N+](=O)[O-])c3)cc2s1` the activity change, negative = inhibition was “inactive”.
Potency means the concentration at half of the fitted maximal effect.
